Experimental data taken from the supplement of paper PMC9135407.
“And” between values parts separate entries of the source, which are not always exact repeats. Equal values may be shown once. Where a name gives a salt, the structure may show the parent alone. ± gives the standard deviation of the averaged measurements. The list shows a part of the results. Baselines shift from plate to plate; read single values as rough.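 Primary human stellate myofibroblasts activated in culture; inactivation shown by regained lipid droplets. Readout: fraction of Hoechst-counted cells exceeding a per-plate Bodipy threshold, duplicate wells, each plate with DMSO negative and nortriptyline positive controls. Hits: control-normalized score beyond the plate's top-tenth-percentile nortriptyline wells, or among its three best wells. Final well concentrations unstated.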

Tested on: primary human hepatic stellate cells (donor 1)
Assay: percent Bodipy-positive cells; higher = more lipid droplet accumulation
Details: 48 h
[1] = library stock concentration: 10 mM
[2] = library stock concentration: 3.33 mM

Compound: C=CC[N@@+]12CC[C@@]34c5ccccc5N5/C=C6/[C@H]7C[C@H]8[C@@]9(CC[N@@+]8(CC=C)C/C7=C/CO)c7ccccc7N(/C=C(/[C@@H](C[C@@H]31)/C(=C\CO)C2)[C@H]54)[C@@H]69 [Alcuronium chloride]
- percent Bodipy-positive cells: 8.45 ± 0.56%

Compound: COc1cc(CC(=O)O)ccc1O [4-Hydroxy-3-methoxyphenylacetic acid]
- percent Bodipy-positive cells [1]: 42.9 ± 8.6%

Compound: COc1c(OC)c2occc2c2oc(=O)ccc12 [Pimpinellin]
- percent Bodipy-positive cells [1]: 27.8 ± 7.5%

Compound: Cc1cc(CC(C)CC(C)(C)C)n(O)c(=O)c1 (configuration not stated)
- percent Bodipy-positive cells [1]: 75.6 ± 11%

Compound: Cn1c(=O)c2c(ncn2CC(O)CO)n(C)c1=O (configuration not stated) [Dyphylline]
- percent Bodipy-positive cells [2]: 7.8 ± 1.7%
- percent Bodipy-positive cells (library stock concentration: 7.9 mM): 3.72 ± 0.22%
- percent Bodipy-positive cells [1]: 12.1% and 12.5%

Compound: Cn1c(=O)c2c(ncn2CC(O)CO)n(C)c1=O (configuration not stated) [Diprophylline]
- percent Bodipy-positive cells: 23.9 ± 1.5%

Compound: CCCc1nc(C(C)(C)O)c(C(=O)OCc2oc(=O)oc2C)n1Cc1ccc(-c2ccccc2-c2nnn[nH]2)cc1 [Olmesartan Medoxomil]
- percent Bodipy-positive cells [2]: 9.83 ± 2.4%
- percent Bodipy-positive cells [1]: 13.7 ± 4.1%

Compound: CCCc1nc(C(C)(C)O)c(C(=O)OCc2oc(=O)oc2C)n1Cc1ccc(-c2ccccc2-c2nnn[nH]2)cc1 [Olmesartan medoxomil]
- percent Bodipy-positive cells (library stock concentration: 3.6 mM): 7.08 ± 2.5%
- percent Bodipy-positive cells [1]: 56.9 ± 7.3%

Compound: CCCc1nc(C(C)(C)O)c(C(=O)OCc2oc(=O)oc2C)n1Cc1ccc(-c2ccccc2-c2nnn[nH]2)cc1
- percent Bodipy-positive cells [1]: 9.71 ± 0.17%

Compound: NC(=O)c1cccnc1
- percent Bodipy-positive cells [1]: 7.72 ± 1.3%

Compound: NC(=O)c1cccnc1 [Nicotinamide (Vitamin B3)]
- percent Bodipy-positive cells [2]: 7.66 ± 5.5%
- percent Bodipy-positive cells [1]: 12.7 ± 3.7%

Compound: NC(=O)c1cccnc1 [Niacinamide]
- percent Bodipy-positive cells (library stock concentration: 16.4 mM): 22.9 ± 7.9%

Compound: Nc1nccs1 [Aminothiazole]
- percent Bodipy-positive cells [2]: 12.6 ± 5.8%
- percent Bodipy-positive cells [1]: 20.2% and 29.8%

Compound: O=C(O)C=CC(=O)O.OCCOCCN1CCN(C2=Nc3ccccc3Sc3ccccc32)CC1.OCCOCCN1CCN(C2=Nc3ccccc3Sc3ccccc32)CC1 [Quetiapine Fumarate]
- percent Bodipy-positive cells [1]: 72.9 ± 2.6%

Compound: O=C(O)CCc1nc2ccccc2[nH]1
- percent Bodipy-positive cells [1]: 17.9 ± 2%

Compound: C[C@@H]1CC2C3C[C@H](F)C4=CC(=O)C=C[C@]4(C)[C@@]3(F)[C@@H](O)C[C@]2(C)[C@@]1(O)C(=O)COC(=O)C(C)(C)C (some centres not stated) [Flumethazone pivalate]
- percent Bodipy-positive cells (library stock concentration: 4 mM): 1.42 ± 0.86%
- percent Bodipy-positive cells [1]: 5.24 ± 0.52%

Compound: CC(=C(CCO)SSCC1CCCO1)N(C=O)Cc1cnc(C)nc1N (stereo in doubt) [Fursultiamine Hydrochloride]
- percent Bodipy-positive cells: 8.43 ± 1.9%

Compound: CCC(C)(CN(C)C)OC(=O)c1ccccc1 (configuration not stated) [Amyleine hydrochloride]
- percent Bodipy-positive cells: 22.4 ± 2%

Compound: CC(C)C[C@@H](/C=C/S(C)(=O)=O)NC(=O)[C@H](CC(C)C)NC(=O)[C@H](CC(C)C)NC(=O)OCc1ccccc1
- percent Bodipy-positive cells (library stock concentration: 9.1 mM): 93.1 ± 5.1%

Compound: C=C(NC(=O)C(=C)NC(=O)c1csc(C2=N[C@@H]3c4csc(n4)[C@H]4NC(=O)c5csc(n5)[C@H]([C@](C)(O)[C@@H](C)O)NC(=O)[C@H]5CSC(=N5)/C(=C/C)NC(=O)[C@H]([C@@H](C)O)NC(=O)c5csc(n5)[C@]3(CC2)NC(=O)[C@H](C)NC(=O)C(=C)NC(=O)[C@H](C)NC(=O)[C@H]([C@@H](C)CC)N[C@@H]2C=Cc3c([C@H](C)O)cc(nc3[C@H]2O)C(=O)O[C@@H]4C)n1)C(N)=O [Thiostrepton]
- percent Bodipy-positive cells: 97.1 ± 2.2%
